Reference: patent publication US10183933B2, “Isoindolinone inhibitors of phosphatidylinositol 3-kinase” (Vertex Pharmaceuticals Incorporated, priority 2009, dated 2019)
Some entries share one result that the patent states for a list of compounds.

By UniProt entry, the sequences of proteins in these tests, tags left out.
UniProt P48736, whole entry, species assumed: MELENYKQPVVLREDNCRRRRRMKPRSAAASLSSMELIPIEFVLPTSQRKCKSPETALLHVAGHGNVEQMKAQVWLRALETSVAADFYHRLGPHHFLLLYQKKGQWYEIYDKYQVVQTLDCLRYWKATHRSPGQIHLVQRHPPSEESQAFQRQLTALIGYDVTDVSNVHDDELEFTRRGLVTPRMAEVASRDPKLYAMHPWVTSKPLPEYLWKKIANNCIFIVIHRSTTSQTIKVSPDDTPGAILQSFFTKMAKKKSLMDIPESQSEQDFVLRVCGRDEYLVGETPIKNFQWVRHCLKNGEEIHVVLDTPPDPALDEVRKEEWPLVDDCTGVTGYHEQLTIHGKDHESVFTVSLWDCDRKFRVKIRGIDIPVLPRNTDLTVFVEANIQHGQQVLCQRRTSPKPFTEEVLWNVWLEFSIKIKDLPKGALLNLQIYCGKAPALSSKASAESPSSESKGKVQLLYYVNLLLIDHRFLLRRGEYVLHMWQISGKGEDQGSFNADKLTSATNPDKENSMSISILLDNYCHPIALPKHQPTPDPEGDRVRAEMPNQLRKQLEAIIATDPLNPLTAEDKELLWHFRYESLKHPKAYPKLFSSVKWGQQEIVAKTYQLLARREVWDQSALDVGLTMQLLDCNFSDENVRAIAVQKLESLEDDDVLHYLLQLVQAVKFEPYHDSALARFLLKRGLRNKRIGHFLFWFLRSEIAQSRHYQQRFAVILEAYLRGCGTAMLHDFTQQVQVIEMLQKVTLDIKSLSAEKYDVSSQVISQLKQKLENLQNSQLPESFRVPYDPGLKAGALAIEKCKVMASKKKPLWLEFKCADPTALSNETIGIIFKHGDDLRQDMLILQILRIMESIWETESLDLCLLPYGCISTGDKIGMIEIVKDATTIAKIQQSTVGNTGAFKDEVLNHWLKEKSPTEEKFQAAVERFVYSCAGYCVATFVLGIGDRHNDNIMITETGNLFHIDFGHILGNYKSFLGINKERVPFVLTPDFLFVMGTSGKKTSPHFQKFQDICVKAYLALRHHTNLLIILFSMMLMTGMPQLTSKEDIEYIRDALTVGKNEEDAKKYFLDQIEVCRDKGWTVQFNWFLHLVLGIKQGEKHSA

Molecular target: PI3K-gamma (Homo sapiens, UniProt P48736)
Assay: PI3K inhibition assay (33P-ATP, PI(4,5)P2 substrate), PI3K-gamma
Format: biochemical
Conditions: 3 μM ATP, 2 nM enzyme, competitive tight binding Ki fit
Experimental: One test well also contained 1.5 μL of DMSO with no compound. […] Using a Titertek Multidrop, 50 μL of Reaction Mix [100 mM HEPES pH 7.5, 50 mM NaCl, 10 mM DTT, 0.2 mg/mL BSA, 60 μM phosphatidylinositol(4,5)bisphosphate diC16 (PI(4,5)P2; Avanti Polar Lipids, Cat. No. 840046P) and PI3K isoform of interest (see Table 3 for isoform concentrations)] was added to each well. To initiate the reaction, 50 μL of ATP Mix [20 mM MgCl2, 6 μM ATP (100 μCi/μmole ^33P-ATP)] was added each well, followed by incubating the wells for 30 min. at 25° C. Final concentrations in each well were 50 mM HEPES 7.5, 10 mM MgCl2, 25 mM NaCl, 5 mM DTT, 0.1 mg/mL BSA, 30 μM PI(4,5)P2, 3 μM ATP, and the PI3K isoform of interest (see Table 2). Final compound concentrations in each well ranged from 10 μM to 1 nM.
After incubation, the reactions in each well were quenched by addition of 50 μL of stop solution [30% TCA/Water, 10 mM ATP]. […] 50 μL of scintillation fluid was added to each well and the plate read on a Perkin-Elmer TopCount™ NXT liquid scintillation counter to obtain ^33P-counts representing inhibition values.
The value for the background well was subtracted from the value obtained for each test well and the data were fit to the competitive tight binding Ki equation described by Morrison and Stone, Comments Mol. Cell Biophys.

| SMILES | Ki [nM] |
| --- | --- |
| COc1cc(-c2ccc3c(n2)C(N2CC[C@@H](F)C2)N(c2cnn(CC(F)(F)F)c2)C3=O)cnc1OC (some centres unmarked) [Compound 661] | < 100 |
| COc1cc(-c2ccc3c(c2)CN(c2cnn(CC#N)c2)C3=O)cnc1OC [Compound 3, 2-[4-[5-(5,6-dimethoxy-3-pyridyl)-1-oxo-isoindolin-2-yl]pyrazol-1-yl]acetonitrile] | < 100 |
| COc1cc(-c2ccc3c(n2)C(C)N(c2ccn(C)n2)C3=O)cnc1OC (centres unmarked) [Compound 609] | < 100 |
| COc1cncc(-c2cc(C)c3c(n2)C(C)N(c2ccn([C@@H]4CCOC4)n2)C3=O)c1 (some centres unmarked) [Compound 840] | < 100 |
| COc1cc(-c2ccc3c(n2)CN(c2cnn(CCn4cccc4)c2)C3=O)cnc1OC [Compound 158] | < 100 |
| COc1cc(-c2ccc3c(n2)CN(c2cnn(Cc4ccc(CO)cc4)c2)C3=O)cnc1OC [Compound 170] | < 100 |
| COc1cc(-c2ccc3c(n2)CN(c2ccc(=O)n(CC4COCCO4)c2)C3=O)cnc1OC (centres unmarked) [Compound 234] | < 100 |
| COCCOCn1cc(N2Cc3nc(-c4cnc(OC)c(OC)c4)ccc3C2=O)cn1 [Compound 178] | < 100 |
| COc1cc(-c2ccc3c(n2)CN(c2ccc(=O)n(CC(F)(F)F)c2)C3=O)cnc1OC [Compound 315] | < 100 |
| COc1cc(-c2ccc3c(n2)CN(c2cnn([C@H](C)CO)c2)C3=O)cnc1OC [Compound 172] | < 100 |
| C=C(F)Cn1cc(N2Cc3nc(-c4cnc(OC)c(OC)c4)ccc3C2=O)cn1 [Compound 239] | < 100 |
| COc1cc(-c2ccc3c(c2)CN(c2cccc(CC#N)c2)C3=O)cnc1OC [Compound 1] | < 100 |
| COc1cc(-c2ccc3c(c2)CN(c2cncc(C)c2)C3=O)cnc1OC [Compound 16] | < 100 |
| Cc1cc(-c2cncc(OCC(F)(F)F)c2)nc2c1C(=O)N(c1cnn(CC(F)(F)F)c1)[C@H]2C [Compound 595] | < 100 |
| CCn1cc(N2Cc3nc(-c4cnc(OC)c(OC)c4)ccc3C2=O)ccc1=O [Compound 317] | < 100 |
| CCn1cc(N2Cc3cc(-c4cnc(OC)c(OC)c4)ccc3C2=O)cn1 [Compound 12] | < 100 |
| Cc1cc(-c2cncc(OC(F)F)c2)nc2c1C(=O)N(c1cnn(C(C)(C)C#N)c1)C2 [Compound 466] | < 100 |
| COCCOc1ncc(-c2cc(C)c3c(n2)C(C)N(c2ccn(C)n2)C3=O)cc1OC (centres unmarked) [Compound 873] | < 100 |
| CCNC(=O)Cn1cc(N2Cc3nc(-c4cnc(OC)c(OC)c4)ccc3C2=O)cn1 [Compound 161] | < 100 |
| COc1ccc(-c2cc(C)c3c(c2)CN(c2cnn(CC#N)c2)C3=O)cc1OC [Compound 64] | < 100 |
| COc1cc(-c2ccc3c(c2)CN(c2cccc(C(N)=O)c2)C3=O)cnc1OC [Compound 10] | < 100 |
| COc1cc(-c2ccc3c(c2)CN(c2cccc(Cn4cncn4)c2)C3=O)cnc1OC [Compound 6] | < 100 |
| CCC#CCn1cc(N2Cc3cc(-c4cnc(OC)c(OC)c4)ccc3C2=O)cn1 [Compound 44] | < 100 |
| COc1cc(-c2ccc3c(n2)CN(c2ccc(N4CCC(O)CC4)nc2)C3=O)cnc1OC [Compound 194] | < 100 |
| CC(=O)Nc1cncc(-c2cc(C)c3c(n2)C(C)(C)N(c2cnn(CC(F)(F)F)c2)C3=O)c1 [Compound 896] | < 100 |
| COc1cc(-c2ccc3c(n2)C(C)N(c2cccc(C(C)(C)C#N)n2)C3=O)cnc1OC (centres unmarked) [Compound 612] | < 100 |
